Among the data in published antibiotic growth screens (doi:10.1016/j.cell.2020.01.021) are relative growth values, retold here.

Whole data set: some 2,300 compounds, median “relative growth” near 1, cut for the lowest 2% near 0.046. This is a selection; strong and weak results do not stand in their true shares.

This test concerns E. coli BW25113. Nature of the test: relative growth (fraction of control); higher = less inhibition. The note with it: 50 µM.
The compound `O=C1CC2OCC=C3CN4CCC56c7ccccc7N1C5C2C3CC46.O=S(=O)(O)O` (centres undefined) showed a relative growth of 1.02.

The compound `CCC(CO)NC(=O)C1C=C2c3cccc4c3c(cn4C)CC2N(C)C1.O=C(O)C=CC(=O)O` (centres undefined) displayed a relative growth of 0.905.

Regarding `CCC(COC(=O)c1cc(OC)c(OC)c(OC)c1)(c1ccccc1)N(C)C.O=C(O)C=CC(=O)O` (centres undefined), the relative growth is 0.993.

In the case of `CNC(=O)Oc1ccc2c(c1)C1(C)CCN(C)C1N2C.O=C(O)c1ccccc1O` (centres undefined), the relative growth was found to be 1.14.

Turning to `CC(CO)NC(=O)C1C=C2c3cccc4[nH]cc(c34)CC2N(C)C1.O=C(O)C=CC(=O)O` (centres undefined), the relative growth was found to be 1.1.

In turn, `Br.CN1C2CC(OC(=O)C(CO)c3ccccc3)CC1C(O)C2` (racemic) returned a relative growth of 1.1.

`CN1CCC2(C)c3cc(O)ccc3N(C)C12.O=C(O)C=CC(=O)O` (centres undefined) displayed a relative growth of 0.961.

On to `CC1C=CC=CCCC=CC=CC=CC=CC(OC2OC(C)C(O)C(N)C2O)CC2OC(O)(CC(O)C(O)CCC(O)CC(O)CC(O)CC(=O)OC(C)C(C)C1O)CC(O)C2C(=O)O` (centres undefined), for which the relative growth was determined as 1.06.

Compound `COc1ccc2c(c1OC)C(=O)OC2C1c2cc3c(cc2CCN1C)OCO3` (centres undefined) returned a relative growth of 1.09.

`CCN(C)C(=O)Oc1cccc(C(C)N(C)C)c1.O=C(O)C(O)C(O)C(=O)O` (centres undefined) displayed a relative growth of 0.922.

Compound `CN1C2CCC1CC(OC(=O)C(CO)c1ccccc1)C2` (centres undefined) had a relative growth of 1.1.

`COc1cc(C2c3cc4c(cc3C(O)C3COC(=O)C23)OCO4)cc(OC)c1OC` (centres undefined) displayed a relative growth of 0.871.

`CNCC(O)c1ccc(O)cc1.CNCC(O)c1ccc(O)cc1.O=C(O)C(O)C(O)C(=O)O` (centres undefined) had a relative growth of 1.06.

On to `O=C(O)C=CC(=O)O.c1ccc2nc(N3CCNCC3)ccc2c1`, for which the relative growth came to 0.991.
